Results on seven molecules are retold here after patent publication US20110021746A1 (published 2011).

The chains behind the UniProt entries cited, without tags or fusion partners. Where a name states a change or a piece, a line headed by the entry shows the natural chain unless it says otherwise. A line that says so, or that is headed by a name, gives the form on record, which may keep a tag or linker. Residues count along the entry.
UniProt P01375, residues 77-233: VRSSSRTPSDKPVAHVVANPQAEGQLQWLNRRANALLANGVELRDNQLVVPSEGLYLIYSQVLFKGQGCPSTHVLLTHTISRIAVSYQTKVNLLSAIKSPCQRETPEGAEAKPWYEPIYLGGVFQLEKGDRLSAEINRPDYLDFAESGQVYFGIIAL
VEGF (P15692, form named): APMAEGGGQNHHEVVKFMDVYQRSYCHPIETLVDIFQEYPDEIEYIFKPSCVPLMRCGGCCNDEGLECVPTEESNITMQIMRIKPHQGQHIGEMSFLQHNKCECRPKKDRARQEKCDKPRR
UniProt P09429: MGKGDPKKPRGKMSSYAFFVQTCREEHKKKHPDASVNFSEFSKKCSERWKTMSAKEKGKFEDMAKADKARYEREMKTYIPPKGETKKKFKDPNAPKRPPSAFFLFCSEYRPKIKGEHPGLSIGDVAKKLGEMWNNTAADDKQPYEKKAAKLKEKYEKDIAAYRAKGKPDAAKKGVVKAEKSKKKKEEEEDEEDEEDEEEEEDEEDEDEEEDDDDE

Assay [1] has as its target T1, TNF-α (UniProt P01375 77-233, biotinylated).
T1 construct: also called TNF-alpha; biotintylated TNF-α soluble protein (R&D Systems)
As to the kind of experiment: phage ELISA. In general terms: ELISA stands for enzyme-linked immunosorbent assay.

The target in assay [2] is T1, TNF-α. The assay is described as follows: ELISA, soluble His-tagged protein.
Assay [3] concerns the target T1, TNF-α. As to the kind of experiment: phage display selection and phage ELISA.
In another assay the target is VEGF (UniProt P15692). As to the kind of experiment: phage ELISA.
Assay [4] concerns the target HMGB1 (UniProt P09429). The assay is described as follows: phage ELISA.
For assay [5], the target named is HMGB1 (UniProt P09429). As to the kind of experiment: competition: biotinylated HMGB1 pre-incubated with R2F8, binding to immobilized RAGE.

These are yes or no findings as the source states them, for the method shown. Some results given as binding are weak or reduced against the parent protein; the word gives no strength.

B1: TNF-α binder R42C10 (designed binder)
chain: NVSPPRRARVTDATETTITISWYHHEDDCYYHFYYFQVDAVPANGQTPIQRTILHGTYTSYTITGLQPGTDYKIYLYTLNASGFCSHSYKPVVIDAST
As for B1, the binding entry with TNF-α [1], with TNF-α [2] and with TNF-α [3] was “binds” each time.

B2: R1G1 anti-VEGF (designed binder)
chain: NVSPPRRARVTDATETTITIRWAGSPGPVDSFQVDAVPANGQTPIQRTIQTSETGYTITGLQPGTDYKIYLYTLNDNARSSPVVIDAST
Turning to B2, the binding result in the assay with VEGF was “binds”.

B3: R1D4 anti-VEGF (designed binder)
chain: NVSPPRRARVTDATETTITIPWEVAGGPIISFQVDAVPANGQTPIQRTITPDATGYTITGLQPGTDYKIYLYTLNDNARSSPVVIDAST
For B3, the binding entry in the assay with VEGF was “binds”.

B4: R1F1 anti-VEGF (designed binder)
chain: NVSPPRRARVTDATETTITIPWALAGGPIISFQVDAVPANGQTPIQRTITPDIRGYTITGLQPGTDYKIYLYTLNDNARSSPVVIDAST
Consider B4, for which, in the assay with VEGF, the binding result was “binds”.

B5: TNF-α binder R4C5 (designed binder)
chain: NVSPPRRARVTDATETTITISWNSSYCHFYGFQVDAVPANGQTPIQRTISDYEYSYTITGLQPGTDYKIYLYTLNASCYGYHYYKPVVIDAST
With B5, the binding result with TNF-α [1], in the assay with TNF-α [2] and with TNF-α [3] was “binds” throughout.

B6: R2F8 anti-HMGB1 (designed binder)
chain: NVSPPRRARVTDATETTITIRWARSASEIARFQVDAVPANGQTPIQRTIKRSANIYTITGLQPGTDYKIYLYTLNDNARSSPVVIDAST
Take B6: the binding entry with HMGB1 [4] and in the assay with HMGB1 [5] was “binds” in each case.

B7: TNF-α binder R41A6 (designed binder)
chain: NVSPPRRARVTDATETTITISWEHSEDDCYSYIYYFQVDAVPANGQTPIQRTISGYETYYTITGLQPGTDYKIYLYTLNSAGFCPPYSKPVVIDAST
notes: 14FN3 variant; for the Octet expressed from pET-20b with pelB signal and C-terminal hexahistidine tag; also called TNF A6
In the case of B7, the binding result with TNF-α [1], with TNF-α [2] and with TNF-α [3] was “binds” each time.
